Source: article PMC7956269

B1: Pogz (protein, UniProt Q7Z3K3 1-1410)
chain: MADTDLFMECEEEELEPWQKISDVIEDSVVEDYNSVDKTTTVSVSQQPVSAPVPIAAHASVAGHLSTSTTVSSSGAQNSDSTKKTLVTLIANNNAGNPLVQQGGQPLILTQNPAPGLGTMVTQPVLRPVQVMQNANHVTSSPVASQPIFITTQGFPVRNVRPVQNAMNQVGIVLNVQQGQTVRPITLVPAPGTQFVKPTVGVPQVFSQMTPVRPGSTMPVRPTTNTFTTVIPATLTIRSTVPQSQSQQTKSTPSTSTTPTATQPTSLGQLAVQSPGQSNQTTNPKLAPSFPSPPAVSIASFVTVKRPGVTGENSNEVAKLVNTLNTIPSLGQSPGPVVVSNNSSAHGSQRTSGPESSMKVTSSIPVFDLQDGGRKICPRCNAQFRVTEALRGHMCYCCPEMVEYQKKGKSLDSEPSVPSAAKPPSPEKTAPVASTPSSTPIPALSPPTKVPEPNENVGDAVQTKLIMLVDDFYYGRDGGKVAQLTNFPKVATSFRCPHCTKRLKNNIRFMNHMKHHVELDQQNGEVDGHTICQHCYRQFSTPFQLQCHLENVHSPYESTTKCKICEWAFESEPLFLQHMKDTHKPGEMPYVCQVCQYRSSLYSEVDVHFRMIHEDTRHLLCPYCLKVFKNGNAFQQHYMRHQKRNVYHCNKCRLQFLFAKDKIEHKLQHHKTFRKPKQLEGLKPGTKVTIRASRGQPRTVPVSSNDTPPSALQEAAPLTSSMDPLPVFLYPPVQRSIQKRAVRKMSVMGRQTCLECSFEIPDFPNHFPTYVHCSLCRYSTCCSRAYANHMINNHVPRKSPKYLALFKNSVSGIKLACTSCTFVTSVGDAMAKHLVFNPSHRSSSILPRGLTWIAHSRHGQTRDRVHDRNVKNMYPPPSFPTNKAATVKSAGATPAEPEELLTPLAPALPSPASTATPPPTPTHPQALALPPLATEGAECLNVDDQDEGSPVTQEPELASGGGGSGGVGKKEQLSVKKLRVVLFALCCNTEQAAEHFRNPQRRIRRWLRRFQASQGENLEGKYLSFEAEEKLAEWVLTQREQQLPVNEETLFQKATKIGRSLEGGFKISYEWAVRFMLRHHLTPHARRAVAHTLPKDVAENAGLFIDFVQRQIHNQDLPLSMIVAIDEISLFLDTEVLSSDDRKENALQTVGTGEPWCDVVLAILADGTVLPTLVFYRGQMDQPANMPDSILLEAKESGYSDDEIMELWSTRVWQKHTACQRSKGMLVMDCHRTHLSEEVLAMLSASSTLPAVVPAGCSSKIQPLDVCIKRTVKNFLHKKWKEQAREMADTACDSDVLLQLVLVWLGEVLGVIGDCPELVQRSFLVASVLPGPDGNINSPTRNADMQEELIASLEEQLKLSGEHSESSTPRPRSSPEETIEPESLHQLFEGESETESFYGFEEADLDLMEI
B2: Nup93 (protein, UniProt Q8N1F7 1-819)
chain: MDTEGFGELLQQAEQLAAETEGISELPHVERNLQEIQQAGERLRSRTLTRTSQETADVKASVLLGSRGLDISHISQRLESLSAATTFEPLEPVKDTDIQGFLKNEKDNALLSAIEESRKRTFGMAEEYHRESMLVEWEQVKQRILHTLLASGEDALDFTQESEPSYISDVGPPGRSSLDNIEMAYARQIYIYNEKIVNGHLQPNLVDLCASVAELDDKSISDMWTMVKQMTDVLLTPATDALKNRSSVEVRMEFVRQALAYLEQSYKNYTLVTVFGNLHQAQLGGVPGTYQLVRSFLNIKLPAPLPGLQDGEVEGHPVWALIYYCMRCGDLLAASQVVNRAQHQLGEFKTWFQEYMNSKDRRLSPATENKLRLHYRRALRNNTDPYKRAVYCIIGRCDVTDNQSEVADKTEDYLWLKLNQVCFDDDGTSSPQDRLTLSQFQKQLLEDYGESHFTVNQQPFLYFQVLFLTAQFEAAVAFLFRMERLRCHAVHVALVLFELKLLLKSSGQSAQLLSHEPGDPPCLRRLNFVRLLMLYTRKFESTDPREALQYFYFLRDEKDSQGENMFLRCVSELVIESREFDMILGKLENDGSRKPGVIDKFTSDTKPIINKVASVAENKGLFEEAAKLYDLAKNADKVLELMNKLLSPVVPQISAPQSNKERLKNMALSIAERYRAQGISANKFVDSTFYLLLDLITFFDEYHSGHIDRAFDIIERLKLVPLNQESVEERVAAFRNFSDEIRHNLSEVLLATMNILFTQFKRLKGTSPSSSSRPQRVIEDRDSQLRSQARTLITFAGMIPYRTSGDTNARLVQMEVLMN
B3: Wdhd1 (protein, UniProt O75717 1-1129)
chain: MPATRKPMRYGHTEGHTEVCFDDSGSFIVTCGSDGDVRIWEDLDDDDPKFINVGEKAYSCALKSGKLVTAVSNNTIQVHTFPEGVPDGILTRFTTNANHVVFNGDGTKIAAGSSDFLVKIVDVMDSSQQKTFRGHDAPVLSLSFDPKDIFLASASCDGSVRVWQISDQTCAISWPLLQKCNDVINAKSICRLAWQPKSGKLLAIPVEKSVKLYRRESWSHQFDLSDNFISQTLNIVTWSPCGQYLAAGSINGLIIVWNVETKDCMERVKHEKGYAICGLAWHPTCGRISYTDAEGNLGLLENVCDPSGKTSSSKVSSRVEKDYNDLFDGDDMSNAGDFLNDNAVEIPSFSKGIINDDEDDEDLMMASGRPRQRSHILEDDENSVDISMLKTGSSLLKEEEEDGQEGSIHNLPLVTSQRPFYDGPMPTPRQKPFQSGSTPLHLTHRFMVWNSIGIIRCYNDEQDNAIDVEFHDTSIHHATHLSNTLNYTIADLSHEAILLACESTDELASKLHCLHFSSWDSSKEWIIDLPQNEDIEAICLGQGWAAAATSALLLRLFTIGGVQKEVFSLAGPVVSMAGHGEQLFIVYHRGTGFDGDQCLGVQLLELGKKKKQILHGDPLPLTRKSYLAWIGFSAEGTPCYVDSEGIVRMLNRGLGNTWTPICNTREHCKGKSDHYWVVGIHENPQQLRCIPCKGSRFPPTLPRPAVAILSFKLPYCQIATEKGQMEEQFWRSVIFHNHLDYLAKNGYEYEESTKNQATKEQQELLMKMLALSCKLEREFRCVELADLMTQNAVNLAIKYASRSRKLILAQKLSELAVEKAAELTATQVEEEEEEEDFRKKLNAGYSNTATEWSQPRFRNQVEEDAEDSGEADDEEKPEIHKPGQNSFSKSTNSSDVSAKSGAVTFSSQGRVNPFKVSASSKEPAMSMNSARSTNILDNMGKSSKKSTALSRTTNNEKSPIIKPLIPKPKPKQASAASYFQKRNSQTNKTEEVKEENLKNVLSETPAICPPQNTENQRPKTGFQMWLEENRSNILSDNPDFSDEADIIKEGMIRFRVLSTEERKVWANKAKGETASEGTEAKKRKRVVDESDETENQEEKAKENLNLSKKQKPLDFSTNQKLSAFAFKQE
B4: Gnl3l (protein, UniProt Q9NVN8 1-582)
chain: MMKLRHKNKKPGEGSKGHKKISWPYPQPAKQNGKKATSKVPSAPHFVHPNDHANREAELKKKWVEEMREKQQAAREQERQKRRTIESYCQDVLRRQEEFEHKEEVLQELNMFPQLDDEATRKAYYKEFRKVVEYSDVILEVLDARDPLGCRCFQMEEAVLRAQGNKKLVLVLNKIDLVPKEVVEKWLDYLRNELPTVAFKASTQHQVKNLNRCSVPVDQASESLLKSKACFGAENLMRVLGNYCRLGEVRTHIRVGVVGLPNVGKSSLINSLKRSRACSVGAVPGITKFMQEVYLDKFIRLLDAPGIVPGPNSEVGTILRNCVHVQKLADPVTPVETILQRCNLEEISNYYGVSGFQTTEHFLTAVAHRLGKKKKGGLYSQEQAAKAVLADWVSGKISFYIPPPATHTLPTHLSAEIVKEMTEVFDIEDTEQANEDTMECLATGESDELLGDTDPLEMEIKLLHSPMTKIADAIENKTTVYKIGDLTGYCTNPNRHQMGWAKRNVDHRPKSNSMVDVCSVDRRSVLQRIMETDPLQQGQALASALKNKKKMQKRADKIASKLSDSMMSALDLSGNADDGVGD
B5: Ppip5k2 (protein, UniProt O43314 1-1243)
chain: MSEAPRFFVGPEDTEINPGNYRHFFHHADEDDEEEDDSPPERQIVVGICSMAKKSKSKPMKEILERISLFKYITVVVFEEEVILNEPVENWPLCDCLISFHSKGFPLDKAVAYAKLRNPFVINDLNMQYLIQDRREVYSILQAEGILLPRYAILNRDPNNPKECNLIEGEDHVEVNGEVFQKPFVEKPVSAEDHNVYIYYPTSAGGGSQRLFRKIGSRSSVYSPESNVRKTGSYIYEEFMPTDGTDVKVYTVGPDYAHAEARKSPALDGKVERDSEGKEVRYPVILNAREKLIAWKVCLAFKQTVCGFDLLRANGQSYVCDVNGFSFVKNSMKYYDDCAKILGNIVMRELAPQFHIPWSIPLEAEDIPIVPTTSGTMMELRCVIAVIRHGDRTPKQKMKMEVRHQKFFDLFEKCDGYKSGKLKLKKPKQLQEVLDIARQLLMELGQNNDSEIEENKPKLEQLKTVLEMYGHFSGINRKVQLTYLPHGCPKTSSEEEDSRREEPSLLLVLKWGGELTPAGRVQAEELGRAFRCMYPGGQGDYAGFPGCGLLRLHSTYRHDLKIYASDEGRVQMTAAAFAKGLLALEGELTPILVQMVKSANMNGLLDSDSDSLSSCQQRVKARLHEILQKDRDFTAEDYEKLTPSGSISLIKSMHLIKNPVKTCDKVYSLIQSLTSQIRHRMEDPKSSDIQLYHSETLELMLRRWSKLEKDFKTKNGRYDISKIPDIYDCIKYDVQHNGSLKLENTMELYRLSKALADIVIPQEYGITKAEKLEIAKGYCTPLVRKIRSDLQRTQDDDTVNKLHPVYSRGVLSPERHVRTRLYFTSESHVHSLLSILRYGALCNESKDEQWKRAMDYLNVVNELNYMTQIVIMLYEDPNKDLSSEERFHVELHFSPGAKGCEEDKNLPSGYGYRPASRENEGRRPFKIDNDDEPHTSKRDEVDRAVILFKPMVSEPIHIHRKSPLPRSRKTATNDEESPLSVSSPEGTGTWLHYTSGVGTGRRRRRSGEQITSSPVSPKSLAFTSSIFGSWQQVVSENANYLRTPRTLVEQKQNPTVGSHCAGLFSTSVLGGSSSAPNLQDYARTHRKKLTSSGCIDDATRGSAVKRFSISFARHPTNGFELYSMVPSICPLETLHNALSLKQVDEFLASIASPSSDVPRKTAEISSTALRSSPIMRKKVSLNTYTPAKILPTPPATLKSTKASSKPATSGPSSAVVPNTSSRKKNITSKTETHEHKKNTGKKK
B6: Fip1l1 (protein, UniProt Q6UN15 1-594)
chain: MSAGEVERLVSELSGGTGGDEEEEWLYGGPWDVHVHSDLAKDLDENEVERPEEENASANPPSGIEDETAENGVPKPKVTETEDDSDSDSDDDEDDVHVTIGDIKTGAPQYGSYGTAPVNLNIKTGGRVYGTTGTKVKGVDLDAPGSINGVPLLEVDLDSFEDKPWRKPGADLSDYFNYGFNEDTWKAYCEKQKRIRMGLEVIPVTSTTNKITAEDCTMEVTPGAEIQDGRFNLFKVQQGRTGNSEKETALPSTKAEFTSPPSLFKTGLPPSRNSTSSQSQTSTASRKANSSVGKWQDRYGRAESPDLRRLPGAIDVIGQTITISRVEGRRRANENSNIQVLSERSATEVDNNFSKPPPFFPPGAPPTHLPPPPFLPPPPTVSTAPPLIPPPGFPPPPGAPPPSLIPTIESGHSSGYDSRSARAFPYGNVAFPHLPGSAPSWPSLVDTSKQWDYYARREKDRDRERDRDRERDRDRDRERERTRERERERDHSPTPSVFNSDEERYRYREYAERGYERHRASREKEERHRERRHREKEETRHKSSRSNSRRRHESEEGDSHRRHKHKKSKRSKEGKEAGSEPAPEQESTEATPAE

molecular target: Biotin-FOXC1 (mouse) (UniProt Q61572); test: affinity purification with mass spectrometry; streptavidin-agarose precipitation of biotinylated FOXC1 from nuclear extract of stable HEK293T cells (293T-Biotin-FOXC1); IP350 buffer (350 mM NaCl, 20 mM Tris-HCl pH 7.5, 0.5% NP40, 1 mM EDTA, 10% glycerin); SDS-PAGE, LC-ESI-MS/MS; proteins of the 293T-Biotin control deducted

Binder | binding
B1 | binds
B2 | binds
B3 | binds
B4 | binds
B5 | binds
B6 | binds

These are yes or no findings as the source states them, for the method shown. In cells and extracts the contact can be indirect. Here binding means that the protein was enriched with, or labelled near, the bait; the list need not be complete.
